No constants are given. Whether binding was seen depends on the method and setting. In cells and extracts the contact can be indirect. Some entries that bind do so weakly or less than the wild type. Where a sequence is shown, tags or fusion partners need not be part of it.
Columns and labels:
Experiment in all cases: co-IP; native immunoprecipitation against the HA tag of MIA40-HA variants (anti-HA agarose beads, overnight, 4 °C) from HEK293 cells; cells pre-treated with 20 mM NEM; lysis in 100 mM NaPi pH 8.1, 1% Triton X-100; washes with 250 mM NaCl; immunoblot against AIFM1
[1] = target: T1, MIA40 wildtype, HA-tagged (MIA40^WT-HA) (human) (UniProt Q8N4Q1)
T1 sequence: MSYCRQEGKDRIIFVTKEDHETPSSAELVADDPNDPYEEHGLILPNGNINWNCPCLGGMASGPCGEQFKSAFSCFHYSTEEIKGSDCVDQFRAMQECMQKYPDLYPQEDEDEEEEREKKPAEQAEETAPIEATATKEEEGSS

The chains behind the UniProt entries cited, without tags or fusion partners. Residues count along the entry.
UniProt O95831, residues 102-613: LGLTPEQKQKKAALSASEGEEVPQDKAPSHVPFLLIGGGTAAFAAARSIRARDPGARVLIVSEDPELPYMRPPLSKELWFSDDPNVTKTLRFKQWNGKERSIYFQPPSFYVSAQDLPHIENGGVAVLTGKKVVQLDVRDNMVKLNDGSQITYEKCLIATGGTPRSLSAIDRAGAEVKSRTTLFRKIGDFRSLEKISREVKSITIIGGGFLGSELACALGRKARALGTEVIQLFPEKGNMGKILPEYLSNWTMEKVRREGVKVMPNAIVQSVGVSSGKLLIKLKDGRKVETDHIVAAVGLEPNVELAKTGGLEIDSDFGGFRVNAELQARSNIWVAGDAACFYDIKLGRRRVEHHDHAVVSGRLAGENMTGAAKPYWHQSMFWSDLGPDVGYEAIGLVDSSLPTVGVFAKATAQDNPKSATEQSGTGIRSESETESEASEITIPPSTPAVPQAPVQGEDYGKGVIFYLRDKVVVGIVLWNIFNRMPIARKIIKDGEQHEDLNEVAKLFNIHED

[2] = target: T2, MIA40^Δ108, HA-tagged (lacking amino acid residues 108-142) (human) (UniProt Q8N4Q1)
T2 sequence: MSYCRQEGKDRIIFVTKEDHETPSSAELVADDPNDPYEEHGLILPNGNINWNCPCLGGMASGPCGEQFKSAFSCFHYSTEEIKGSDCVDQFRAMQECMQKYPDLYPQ

[3] = target: T3, MIA40^Δ40, HA-tagged (lacking the first 40 amino acids) (human) (UniProt Q8N4Q1)
T3 sequence: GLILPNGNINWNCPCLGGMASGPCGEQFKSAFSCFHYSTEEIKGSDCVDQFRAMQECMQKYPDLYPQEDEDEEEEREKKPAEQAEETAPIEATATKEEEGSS

“apoptosis-inducing factor (AIFM1) (from UniProt O95831 102-613)” was tested, and the binding [1] was “binds”, the binding [2] was “binds” and the binding [3] was “no binding”.
